# Test results taken from patent publication US5807986A (The Salk Institute For Biological Studies, priority 1995, dated 1998).
# Strings that start with PEPTIDE1 are HELM notation: dots part the residues, brackets hold end groups and non-standard residues.
# Assay: general procedure: Boc solid-phase peptide synthesis
# Settings: whole synthesis
Substance,final purity (method not given) (capillary zone electrophoresis),final purity (method not given) (capillary zone electrophoresis (CZE) and RP-HPLC)
(cyclo 1-8)H-Cys-Phe-Phe-(2-naphthylamido)Gly-Lys-Thr-Phe-Cys-OH,greater than 80% pure,
"PEPTIDE1{C.F.F.[Agl(2-naphthoyl)].K.T.F.C}$PEPTIDE1,PEPTIDE1,1:R3-8:R3$$$V2.0",greater than 80% pure,
PEPTIDE1{[ac].[D-2Nal].[D-4Cpa].[Agl(nicotinoyl)].S.[Aph(Ac)].[D-Aph(Ac)].L.[ILys].P.[dA].[am]}$$$$V2.0,,97%-98%
